PubChem BioAssay AID1224830 | NIAID – 2016
The whole screen tested about 18,000 reagents; this is an unselected part. About 2,900 of all reagents (16%) were called active. 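Calls are made per well; low scores hint the gene aids the LPS response, high scores that it dampens it.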 Repeated entries: four replicate wells of each siRNA pool.

Aim: 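Regulators of TLR4 signalling towards TNF-alpha in macrophage-like cells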 (primary screen)
Cells: human THP-1 monocytic leukaemia cells, TNF dual-luciferase reporter clone, PMA-differentiated to macrophage-like cells
Reagents: siRNA pool against human genes, 50 nM
Time to read-out: LPS for 4 h, given about 3 days after siRNA transfection
Conditions: bacterial LPS (TLR4 ligand), 10 ng/ml
Measurement: 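TNF firefly reporter luminescence divided by renilla, normalised to the plate median, then turned into a robust z-score for each replicate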
Reading the numbers: TNF reporter robust z-score: higher = stronger TNF reporter response to LPS
Rule for the call: 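a well is active when its z-score exceeds 2.8 or falls below -1.5; control wells carry no call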

gene | TNF reporter robust z-score | Call
ZNF526 | -0.88 | inactive
ZNF526 | -0.96 | inactive
ZNF526 | -0.56 | inactive
ZNF526 | 0.27 | inactive
MAP3K13 | -0.32 | inactive
MAP3K13 | 0.02 | inactive
MAP3K13 | 0.42 | inactive
MAP3K13 | -0.99 | inactive
CHD1 | 0.07 | inactive
CHD1 | 0.12 | inactive
CHD1 | 1.62 | inactive
CHD1 | 0.8 | inactive
NDUFAF7 | 1.06 | inactive
NDUFAF7 | 1.09 | inactive
NDUFAF7 | 0.96 | inactive
NDUFAF7 | 0.42 | inactive
ADCYAP1R1 | -1.39 | inactive
ADCYAP1R1 | -0.9 | inactive
ADCYAP1R1 | -0.91 | inactive
ADCYAP1R1 | -0.96 | inactive
MKNK1 | 0.3 | inactive
MKNK1 | 0.7 | inactive
MKNK1 | 0.62 | inactive
MKNK1 | 0.61 | inactive
HFE | -0.01 | inactive
HFE | -0.47 | inactive
HFE | -0.96 | inactive
HFE | -0.31 | inactive
SMG7 | 1.68 | inactive
SMG7 | 1.42 | inactive
SMG7 | 2.46 | inactive
SMG7 | 4.35 | active
TSR1 | -0.01 | inactive
TSR1 | 0.23 | inactive
TSR1 | 0.68 | inactive
TSR1 | 0.22 | inactive
CXCL9 | -1 | inactive
CXCL9 | -1.26 | inactive
CXCL9 | -1.23 | inactive
CXCL9 | -1.37 | inactive
EGR1 | -1.74 | active
EGR1 | -1.54 | active
EGR1 | -1.8 | active
EGR1 | -1.72 | active
PAICS | 0.57 | inactive
PAICS | 0.68 | inactive
PAICS | -0.89 | inactive
PAICS | -0.17 | inactive
RUNX1 | -1.37 | inactive
RUNX1 | -1.29 | inactive
RUNX1 | -1.33 | inactive
RUNX1 | -1.25 | inactive
POU3F2 | -0.39 | inactive
POU3F2 | 0.15 | inactive
POU3F2 | 0.06 | inactive
POU3F2 | 0.77 | inactive
AURKC | -0.47 | inactive
AURKC | 0.9 | inactive
AURKC | 0.4 | inactive
AURKC | 1.24 | inactive
TRAF1 | -0.55 | inactive
TRAF1 | -0.75 | inactive
TRAF1 | -0.29 | inactive
TRAF1 | -1.04 | inactive
NFYB | -1.94 | active
NFYB | -1.08 | inactive
NFYB | -1.54 | active
NFYB | -0.4 | inactive
TBC1D16 | -1.42 | inactive
TBC1D16 | -0.46 | inactive
TBC1D16 | -0.81 | inactive
TBC1D16 | 0.37 | inactive
SAE1 | 1.69 | inactive
SAE1 | 1.41 | inactive
SAE1 | 2.26 | inactive
SAE1 | 1.84 | inactive
STAB2 | 0.26 | inactive
STAB2 | 0.25 | inactive
STAB2 | 0.6 | inactive
STAB2 | 0.14 | inactive
CXCL11 | -0.86 | inactive
CXCL11 | -1.14 | inactive
CXCL11 | -1.41 | inactive
CXCL11 | -1 | inactive
CRABP2 | -0.28 | inactive
CRABP2 | 0.05 | inactive
CRABP2 | -0.51 | inactive
CRABP2 | 0.42 | inactive
MRPS26 | -1.08 | inactive
MRPS26 | -0.85 | inactive
MRPS26 | -0.82 | inactive
MRPS26 | -0.74 | inactive
GNG13 | 0.21 | inactive
GNG13 | 0.11 | inactive
GNG13 | -0.07 | inactive
GNG13 | 2.73 | inactive
ACOT8 | 0.06 | inactive
ACOT8 | 0.45 | inactive
ACOT8 | -0.55 | inactive
ACOT8 | -0.25 | inactive
WDR18 | -0.91 | inactive
WDR18 | -1.48 | inactive
WDR18 | -1.06 | inactive
WDR18 | 2.69 | inactive
OR5K1 | -0.1 | inactive
OR5K1 | 0.4 | inactive
OR5K1 | 0.32 | inactive
OR5K1 | -0.56 | inactive
FRMD6 | 1.68 | inactive
FRMD6 | -1.02 | inactive
FRMD6 | 1.28 | inactive
FRMD6 | 0.78 | inactive

Called active (from the list above):
gene | TNF reporter robust z-score | Call
SMG7 | 4.35 | active
EGR1 | -1.74 | active
EGR1 | -1.54 | active
EGR1 | -1.8 | active
EGR1 | -1.72 | active
NFYB | -1.94 | active
NFYB | -1.54 | active
